Substitutions are numbered along the chain they refer to. No constants are given. Whether binding was seen depends on the method and setting. Binding seen in cells or lysates may run through a third protein. Some binding calls cover weakened binding; strength is not graded here. For some of these results: Tags and fused reporters may be left off the sequences shown.

By UniProt entry, the sequences of proteins in these tests, tags left out. Residues count along the entry.
UniProt P11021, residues 19-654: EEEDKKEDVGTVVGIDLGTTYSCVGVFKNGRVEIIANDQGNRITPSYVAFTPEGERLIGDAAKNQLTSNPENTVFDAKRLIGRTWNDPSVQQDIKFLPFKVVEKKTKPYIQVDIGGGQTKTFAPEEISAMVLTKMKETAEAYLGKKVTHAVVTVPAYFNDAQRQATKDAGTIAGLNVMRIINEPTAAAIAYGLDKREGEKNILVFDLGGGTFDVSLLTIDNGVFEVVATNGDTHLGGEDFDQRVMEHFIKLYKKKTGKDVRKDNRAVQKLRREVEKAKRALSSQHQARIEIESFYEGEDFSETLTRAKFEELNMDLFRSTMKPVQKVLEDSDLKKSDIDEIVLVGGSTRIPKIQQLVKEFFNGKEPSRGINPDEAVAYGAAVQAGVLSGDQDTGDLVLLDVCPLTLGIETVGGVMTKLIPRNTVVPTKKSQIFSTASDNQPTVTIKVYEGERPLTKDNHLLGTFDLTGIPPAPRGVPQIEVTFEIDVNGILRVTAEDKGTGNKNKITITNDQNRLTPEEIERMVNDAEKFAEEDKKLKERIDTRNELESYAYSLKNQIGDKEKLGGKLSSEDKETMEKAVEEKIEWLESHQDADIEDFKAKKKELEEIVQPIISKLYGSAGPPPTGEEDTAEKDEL

The target of assay [1] is T1, Three prime repair exonuclease 1 (TREX1), endogenous (human (endogenous in 293 T, SH-SY5Y, A431)) (UniProt Q9NSU2).
T1 sequence: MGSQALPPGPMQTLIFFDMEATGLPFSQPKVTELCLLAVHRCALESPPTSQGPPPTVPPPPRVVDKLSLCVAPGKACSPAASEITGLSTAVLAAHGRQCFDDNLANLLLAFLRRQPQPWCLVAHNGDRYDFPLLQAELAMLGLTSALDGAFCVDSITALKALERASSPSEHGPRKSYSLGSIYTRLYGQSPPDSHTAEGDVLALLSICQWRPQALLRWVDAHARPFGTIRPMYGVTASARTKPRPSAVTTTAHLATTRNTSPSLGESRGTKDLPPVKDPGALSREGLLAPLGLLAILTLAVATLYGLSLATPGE
In words: co-IP; membrane fractions containing ER.

Assay [2] addresses T1, Three prime repair exonuclease 1 (TREX1), endogenous (human (endogenous in 293 T, SH-SY5Y, A431)). In words: co-IP; IP of TREX1-BiP/GRP78 from cells treated with the TAT-conjugated TREX1 peptide (5 μM).
In assay [3] the target is T2, FLAG-tagged full-length (FL) TREX1 (p3XFLAG-CMV-7.1) (human) (UniProt Q9NSU2).
T2 sequence: T1 sequence
Description: co-IP; FLAG-tagged full-length TREX1 and deletion constructs D1-D4 (p3XFLAG-CMV-7.1) assessed by IP.

Assay [4] has as its target T3, GFP-tagged TREX1 (wild type, pEGFP-N3) (human) (UniProt Q9NSU2).
T3 sequence: T1 sequence
In words: proximity ligation; Duolink in situ red kit; fixed SH-SY5Y cells transfected with GFP-tagged TREX1 WT or V91M; primary antibodies against GFP and BiP/GRP78.

Assay [5] has as its target T4, GFP-tagged TREX1 V91M (HSP patient-specific mutant, pEGFP-N3) (human) (UniProt Q9NSU2).
T4 sequence: T1 sequence with V91M
The description is as above.

Assay [6] has as its target T3, GFP-tagged TREX1 (wild type, pEGFP-N3) (human). Description: co-IP; 293 T cells transfected with GFP-tagged TREX1 plasmids (wild type in increasing dose; V91M); IP with anti-GFP antibody, blot for endogenous BiP/GRP78.
Assay [7] has as its target T4, GFP-tagged TREX1 V91M (HSP patient-specific mutant, pEGFP-N3) (human). The description is as above.
The target in assay [8] is T1, Three prime repair exonuclease 1 (TREX1), endogenous (human (endogenous in 293 T, SH-SY5Y, A431)). Description: co-IP; endogenous proteins from 293 T, SH-SY5Y and A431 lysates; Pierce IP lysis buffer, indicated antibodies and protein G-agarose overnight at 4 °C, washed with TBS, western blot. A general note: A western blot detects proteins with antibodies after separation by electrophoresis.

The target in assay [9] is BiP/GRP78, endogenous (human (endogenous in 293 T, SH-SY5Y, A431)) (UniProt P11021). Description: co-IP; competition: cells treated with the TAT-conjugated TREX1 peptide (5 μM), loss of the TREX1-BiP/GRP78 co-precipitate read out; only the binder purified.
A further assay concerns the target GST-tagged BiP/GRP78 (UniProt P11021). In words: pull-down; 293 T cells cotransfected with GST-tagged BiP/GRP78 and FLAG-tagged TREX1 plasmids; GST precipitated from cell lysates, western blot.

In the case of “BiP/GRP78, endogenous (from UniProt P11021 19-654)”, the binding entry in assay [1] is reported as “binds”; in [2], “binds”; in assay [3], “binds”; in [4] it was “binds”; in [5], “binds weakly”; in assay [6], “binds”. The binding entry is given as “binds weakly” in assay [7] and “binds” in assay [8].
As for AASEITGLSTAVLAAHGRQC (peptide, UniProt Q9NSU2-3 80-99) [TAT-conjugated TREX1 mimic peptide (amino acids 80-99)], the binding result in [9] was “binds”.

B1: FLAG-tagged full-length (FL) TREX1 (p3XFLAG-CMV-7.1) (protein, UniProt Q9NSU2-3 1-314)
chain: T1 sequence
Regarding B1, the binding result with GST-tagged BiP/GRP78 was “binds”.
